{
  "source": "the supplement of paper PMC8846439",
  "note": "Structures can show the parent of a compound that is named as a salt. Some of the results follow. Single values are uncertain, as repeats are few or missing.",
  "data": [
    {"system": "Trypanosoma brucei brucei bloodstream form L262P (kDNA-independent)", "assay": "viability Z-score (nuclei count per well, median-polish normalised, relative to plate distribution); higher = more viable parasites (negative = growth inhibition)", "conditions": "4 days; compound concentration: 10 µM (some Prestwick/PKE rows may be 1 µM / not distinguished)", "values": [
      {"smiles": "O=P1(N(CCCl)CCCl)NCCCO1", "note": "(stereo not drawn) [Cyclophosphamide]", "viability Z-score": -3.98},
      {"smiles": "CC(C)(C)c1cc(C=C(C#N)C#N)cc(C(C)(C)C)c1O", "viability Z-score": -3.03},
      {"smiles": "C[C@@]12C[C@@H](O)CCN1CCc1ccccc12", "viability Z-score": -1.48},
      {"smiles": "COc1ccc(CCN2CCC(Nc3nc4ccccc4n3Cc3ccc(F)cc3)CC2)cc1", "note": "[Astemizole]", "viability Z-score": -2.01},
      {"smiles": "CN[C@H]1C[C@@H]2O[C@](C)([C@H]1OC)n1c3ccccc3c3c4c(c5c6ccccc6n2c5c31)C(=O)NC4", "note": "[Staurosporine]", "viability Z-score": -6.69},
      {"smiles": "CC[C@@]1([C@@H]2O[C@@H]([C@H]3O[C@@](O)(CO)[C@H](C)C[C@@H]3C)C[C@@H]2C)CC[C@H]([C@]2(C)CC[C@]3(C[C@H](O)[C@@H](C)[C@@H]([C@@H](C)[C@@H](OC)[C@H](C)C(=O)[O-])O3)O2)O1", "note": "[Monensin sodium salt]", "viability Z-score": -2.1},
      {"smiles": "CN1C(=O)[C@]23CC4=CC=C[C@H](O)[C@H]4N2C(=O)[C@@]1(CO)SS3", "note": "[Gliotoxin]", "viability Z-score": -6.59},
      {"smiles": "N#C/C3=C/C([Cl])=C(CN1CCN(CC1)C=2C=CC=CC=2OC)C=C3", "viability Z-score": -4.34},
      {"smiles": "O[C@@]([H])(CN(CC)CC)C1=CC=C(C=C1)[C@]2([H])CCCC2", "viability Z-score": -5.48},
      {"smiles": "N#C/C1=C/C=C/C=C1/CO/C2=C/C=C(C=C2)N4C(C)=CC(/C=C3/C(=O)NC(=[S])NC3=O)=C4C", "viability Z-score": -5.76},
      {"smiles": "CN(C(=O)c1ccco1)c1ccc(Cl)cc1C(=O)c1ccccc1", "viability Z-score": -3.65},
      {"smiles": "CN1C[C@H](C(=O)N[C@]2(C)O[C@@]3(O)[C@@H]4CCCN4C(=O)[C@H](Cc4ccccc4)N3C2=O)CC2c3cccc4[nH]cc(c34)C[C@H]21.CN1C[C@H](C(=O)N[C@]2(C)O[C@@]3(O)[C@@H]4CCCN4C(=O)[C@H](Cc4ccccc4)N3C2=O)C[C@@H]2c3cccc4[nH]cc(c34)C[C@H]21", "note": "(stereo partly drawn) [Dihydroergotamine tartrate]", "viability Z-score": -1.21},
      {"smiles": "O=c1[nH]c2ccccc2n1C1CCN(CCCC(c2ccc(F)cc2)c2ccc(F)cc2)CC1", "note": "[Pimozide]", "viability Z-score": -3.25}
    ]}
  ]
}
